PubChem BioAssay AID1224830 | NIAID, 2016

Assay: 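Host factors that control LPS-induced TNF expression in human macrophages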 (primary screen)
Cell system: human THP-1 monocytic leukaemia cells, TNF dual-luciferase reporter clone, PMA-differentiated to macrophage-like cells
Knock-down reagent: siRNA pool against human genes, 50 nM
Time to read-out: LPS for 4 h, given about 3 days after siRNA transfection
Challenge: bacterial LPS (TLR4 ligand), 10 ng/ml
Measured: 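Ratio of firefly to renilla light, scaled to the plate median and expressed as a robust z-score per replicate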
Scale: TNF reporter robust z-score: higher = stronger TNF reporter response to LPS
Hit rule: 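a well is active when its z-score exceeds 2.8 or falls below -1.5; control wells carry no call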
This is a random part of about 18,000 deposited reagents. Of all reagents, about 2,900 (16%) were called active. 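Calls are made per well; low scores hint the gene aids the LPS response, high scores that it dampens it.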 Repeated entries: four replicate wells of each siRNA pool.

| Target gene | TNF reporter robust z-score | call |
| --- | --- | --- |
| DVL1 | -0.61 | inactive |
| DVL1 | -0.53 | inactive |
| DVL1 | -1.11 | inactive |
| DVL1 | 0.18 | inactive |
| IL36B | -1.31 | inactive |
| IL36B | -1.49 | inactive |
| IL36B | -0.44 | inactive |
| IL36B | -0.04 | inactive |
| RNF17 | 0.08 | inactive |
| RNF17 | -1.48 | inactive |
| RNF17 | -1.62 | active |
| RNF17 | 0.51 | inactive |
| ARSK | 1.27 | inactive |
| ARSK | 1.46 | inactive |
| ARSK | 1.72 | inactive |
| ARSK | 1.74 | inactive |
| USP33 | -0.1 | inactive |
| USP33 | 0.45 | inactive |
| USP33 | -0.33 | inactive |
| USP33 | -0.37 | inactive |
| TELO2 | 0.43 | inactive |
| TELO2 | -0.15 | inactive |
| TELO2 | -0.42 | inactive |
| TELO2 | 0.97 | inactive |
| LCP1 | 0.21 | inactive |
| LCP1 | 2.17 | inactive |
| LCP1 | 3.22 | active |
| LCP1 | 2.62 | inactive |
| CHD9 | 0.27 | inactive |
| CHD9 | 0.32 | inactive |
| CHD9 | -0.08 | inactive |
| CHD9 | 0.69 | inactive |
| CBX8 | -0.62 | inactive |
| CBX8 | -0.1 | inactive |
| CBX8 | -0.9 | inactive |
| CBX8 | -0.04 | inactive |
| ZBED8 | -0.45 | inactive |
| ZBED8 | 0.13 | inactive |
| ZBED8 | 0 | inactive |
| ZBED8 | 0.4 | inactive |
| TSSK6 | 2.69 | inactive |
| TSSK6 | 2.92 | active |
| TSSK6 | 0.08 | inactive |
| TSSK6 | 2.16 | inactive |
| HIKESHI | 1.13 | inactive |
| HIKESHI | -0.24 | inactive |
| HIKESHI | 0.15 | inactive |
| HIKESHI | 0.34 | inactive |

7 entries from above in another layout:
Target gene | TNF reporter robust z-score | call
IL36B | -0.04 | inactive
RNF17 | 0.08 | inactive
RNF17 | -1.48 | inactive
RNF17 | -1.62 | active
RNF17 | 0.51 | inactive
ARSK | 1.27 | inactive
ARSK | 1.46 | inactive
